# Measured values taken from publication doi:10.1101/2023.11.22.568272, “Sec7 regulatory domains scaffold autoinhibited and active conformations” (bioRxiv, 2023).
# By UniProt entry, the sequences of proteins in these tests, tags left out. Where a name states a change or a piece, a line headed by the entry shows the natural chain unless it says otherwise. Chains listed by the source or under a name are the forms on record and can include a tag or linker.
# S. cerevisiae Sec7 L1376D/ΔD-loop double mutant (P11075, form named): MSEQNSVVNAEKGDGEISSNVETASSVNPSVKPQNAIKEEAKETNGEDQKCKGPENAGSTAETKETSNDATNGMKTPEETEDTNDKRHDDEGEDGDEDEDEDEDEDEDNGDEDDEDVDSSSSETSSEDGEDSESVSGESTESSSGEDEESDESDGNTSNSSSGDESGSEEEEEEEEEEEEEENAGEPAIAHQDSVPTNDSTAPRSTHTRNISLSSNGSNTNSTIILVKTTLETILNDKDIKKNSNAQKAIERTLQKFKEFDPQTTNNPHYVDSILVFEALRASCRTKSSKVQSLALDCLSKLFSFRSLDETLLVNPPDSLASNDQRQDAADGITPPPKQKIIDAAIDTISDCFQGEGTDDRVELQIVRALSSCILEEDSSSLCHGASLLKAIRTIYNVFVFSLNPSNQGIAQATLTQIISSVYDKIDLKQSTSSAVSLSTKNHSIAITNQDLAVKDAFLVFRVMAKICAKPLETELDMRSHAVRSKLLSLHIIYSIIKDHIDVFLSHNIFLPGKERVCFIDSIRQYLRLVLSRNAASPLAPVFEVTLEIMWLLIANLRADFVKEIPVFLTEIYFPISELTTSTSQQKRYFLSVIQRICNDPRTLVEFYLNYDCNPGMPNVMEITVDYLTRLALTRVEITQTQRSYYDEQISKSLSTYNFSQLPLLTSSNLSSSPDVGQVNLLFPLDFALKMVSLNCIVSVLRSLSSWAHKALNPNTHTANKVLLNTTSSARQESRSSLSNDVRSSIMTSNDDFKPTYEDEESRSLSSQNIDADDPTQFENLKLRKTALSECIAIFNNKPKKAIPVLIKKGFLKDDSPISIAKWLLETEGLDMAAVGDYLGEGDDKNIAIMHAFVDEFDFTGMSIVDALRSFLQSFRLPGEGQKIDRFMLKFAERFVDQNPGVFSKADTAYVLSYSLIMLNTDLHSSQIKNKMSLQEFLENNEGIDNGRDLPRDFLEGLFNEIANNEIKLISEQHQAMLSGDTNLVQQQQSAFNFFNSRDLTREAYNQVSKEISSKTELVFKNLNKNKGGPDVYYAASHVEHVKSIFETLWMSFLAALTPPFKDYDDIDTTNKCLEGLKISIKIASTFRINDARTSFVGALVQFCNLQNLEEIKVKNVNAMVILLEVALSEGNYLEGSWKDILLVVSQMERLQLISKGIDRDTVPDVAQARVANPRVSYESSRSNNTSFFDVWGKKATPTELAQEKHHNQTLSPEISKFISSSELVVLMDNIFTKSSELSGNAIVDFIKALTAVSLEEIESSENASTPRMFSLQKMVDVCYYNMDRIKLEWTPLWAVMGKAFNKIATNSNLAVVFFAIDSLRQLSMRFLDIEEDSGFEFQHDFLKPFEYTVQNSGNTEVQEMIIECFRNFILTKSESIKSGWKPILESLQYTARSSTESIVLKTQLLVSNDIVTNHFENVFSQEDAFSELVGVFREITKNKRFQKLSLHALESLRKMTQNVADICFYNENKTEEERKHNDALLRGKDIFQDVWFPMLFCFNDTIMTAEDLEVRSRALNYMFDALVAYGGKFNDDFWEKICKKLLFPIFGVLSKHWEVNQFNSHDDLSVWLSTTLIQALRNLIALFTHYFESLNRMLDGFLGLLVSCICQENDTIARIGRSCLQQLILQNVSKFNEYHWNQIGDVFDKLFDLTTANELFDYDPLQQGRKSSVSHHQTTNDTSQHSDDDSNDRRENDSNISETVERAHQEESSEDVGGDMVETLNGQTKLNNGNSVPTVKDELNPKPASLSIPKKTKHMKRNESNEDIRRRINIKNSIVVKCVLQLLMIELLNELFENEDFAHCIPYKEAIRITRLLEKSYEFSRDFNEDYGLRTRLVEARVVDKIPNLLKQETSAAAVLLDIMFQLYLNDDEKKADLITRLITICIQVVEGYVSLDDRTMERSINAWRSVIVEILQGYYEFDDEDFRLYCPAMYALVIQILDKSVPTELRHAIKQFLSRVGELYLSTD
# No constants are given. Whether binding was seen depends on the method and setting. Some entries that bind do so weakly or less than the wild type.
# Biological target: T1, myristoylated Arf1-GTP (Arf1 loaded with GMPPNP on TGN-like liposomes) (S. cerevisiae) (UniProt P11076)
# T1 sequence (chain, myristoylated; loaded with GMPPNP): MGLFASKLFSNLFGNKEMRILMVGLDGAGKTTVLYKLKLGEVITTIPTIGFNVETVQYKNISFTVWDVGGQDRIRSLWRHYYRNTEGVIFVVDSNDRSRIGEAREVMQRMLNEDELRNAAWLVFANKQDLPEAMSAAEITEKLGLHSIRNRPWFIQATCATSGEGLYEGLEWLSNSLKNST
# Test: liposome flotation; 250 μM synthetic TGN-like liposomes pre-loaded with titrated molar ratios of myristoylated Arf1-GMPPNP by EDTA exchange; 550 nM Sec7 construct, room temperature 1 hour; flotation by ultracentrifugation under a sucrose gradient; SDS-PAGE and densitometry; both purified
substance,measurement,value
S. cerevisiae Sec7 L1376D/ΔD-loop double mutant (from UniProt P11075 1-2009),binding,binds
